# Screening data, single-dose tests

By UniProt entry, the sequences of proteins in these tests, tags left out. Residues count along the entry.
UniProt A4I591, 1-473: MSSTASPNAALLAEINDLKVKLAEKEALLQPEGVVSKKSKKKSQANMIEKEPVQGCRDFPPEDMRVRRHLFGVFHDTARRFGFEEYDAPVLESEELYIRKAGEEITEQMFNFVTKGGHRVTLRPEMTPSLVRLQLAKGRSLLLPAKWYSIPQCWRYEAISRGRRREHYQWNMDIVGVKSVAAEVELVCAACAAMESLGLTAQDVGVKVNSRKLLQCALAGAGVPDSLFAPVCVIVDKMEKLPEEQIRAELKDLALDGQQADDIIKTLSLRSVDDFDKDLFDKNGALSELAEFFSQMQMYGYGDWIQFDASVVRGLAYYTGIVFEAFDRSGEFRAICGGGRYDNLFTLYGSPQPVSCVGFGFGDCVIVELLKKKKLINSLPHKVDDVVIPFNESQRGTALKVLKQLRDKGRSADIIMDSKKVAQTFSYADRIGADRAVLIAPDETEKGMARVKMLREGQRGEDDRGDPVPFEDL
UniProt P9WPC5, whole entry: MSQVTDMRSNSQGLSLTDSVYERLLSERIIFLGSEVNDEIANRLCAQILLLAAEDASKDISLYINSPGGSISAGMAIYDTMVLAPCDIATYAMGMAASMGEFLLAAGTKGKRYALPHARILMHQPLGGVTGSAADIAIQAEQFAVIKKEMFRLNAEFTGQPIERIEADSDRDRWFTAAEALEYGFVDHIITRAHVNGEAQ
UniProt P9WPC3, whole entry partner: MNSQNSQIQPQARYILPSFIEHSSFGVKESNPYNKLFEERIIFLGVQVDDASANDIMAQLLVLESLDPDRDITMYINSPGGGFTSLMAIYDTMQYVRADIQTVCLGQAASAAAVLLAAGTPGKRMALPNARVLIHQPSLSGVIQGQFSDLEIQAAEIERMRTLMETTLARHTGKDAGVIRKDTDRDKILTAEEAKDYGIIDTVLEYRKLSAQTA
UniProt Q4DA54, 1-478: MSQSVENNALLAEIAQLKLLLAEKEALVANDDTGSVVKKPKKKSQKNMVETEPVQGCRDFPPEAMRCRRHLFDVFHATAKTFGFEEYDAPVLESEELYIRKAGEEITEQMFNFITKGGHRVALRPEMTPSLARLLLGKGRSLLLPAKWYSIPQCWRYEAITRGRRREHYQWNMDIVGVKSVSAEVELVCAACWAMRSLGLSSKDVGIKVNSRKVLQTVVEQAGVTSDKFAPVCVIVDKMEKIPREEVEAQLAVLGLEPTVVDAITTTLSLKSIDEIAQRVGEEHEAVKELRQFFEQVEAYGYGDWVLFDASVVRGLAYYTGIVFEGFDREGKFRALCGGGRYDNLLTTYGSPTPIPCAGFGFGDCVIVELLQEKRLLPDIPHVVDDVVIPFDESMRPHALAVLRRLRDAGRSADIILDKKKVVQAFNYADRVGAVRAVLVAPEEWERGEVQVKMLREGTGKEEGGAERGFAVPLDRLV

Data taken from ChEMBL document CHEMBL3988442, “University of Dundee, Small-Polar-MMV Screening Library” (2021).

Toxoplasma: 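Assay of Toxoplasma gondii numbers, read through their beta-galactosidase reporter with a colour substrate. Compounds at 10 µM. The record gives no direction; the compounds picked for IC50 retests had high values, so higher reads as fewer parasites. Of about 67,000 compounds tested this way, about 260 (0.38%) reached 50% or more in at least one test.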
T. brucei: 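Whole-parasite assay of Trypanosoma brucei over 72 hours; the read-out is not stated. Compounds at 30 µM. Higher reads as stronger inhibition (inferred: compounds with an IC50 in retests scored well above the rest). Values scatter widely below zero; nearly all retest evidence comes from the higher of the two concentrations used. Of about 64,000 compounds tested this way, about 940 (1.5%) reached 50% or more in at least one test.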
LiHisRS: 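Enzyme assay of histidyl-tRNA synthetase; the read-out is not stated. Target: Histidine-tRNA ligase, Leishmania infantum (UniProt A4I591). Concentration: 30 µM. Higher reads as stronger inhibition (inferred: compounds with an IC50 in retests scored well above the rest). The assay is labelled LdHisRS but filed under L. infantum. About 69,000 compounds were tested under these conditions; 0.6% (about 410) showed 50% or more at least once.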
ClpP1P2: 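ClpP1P2, Mycobacterium tuberculosis (UniProt P9WPC5 and UniProt P9WPC3). Protease assay of ClpP1P2, read by the AMC dye that it sets free. Compounds at 50 µM. Higher reads as stronger inhibition, judged from the few compounds that gave an IC50. Most other retested compounds had strongly negative values. Size under these conditions: about 69,000 compounds, about 10 of them at 50% or above in at least one test.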
TcHisRS: 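Enzyme assay of histidyl-tRNA synthetase; the read-out is not stated. Target: Histidine-tRNA ligase, Trypanosoma cruzi CL Brener (UniProt Q4DA54). Tested at 30 µM. The record gives no direction; compounds that gave an IC50 in retests scored well above the rest, so higher reads as stronger inhibition. Of about 69,000 compounds tested this way, about 31 (0.045%) reached 50% or more in at least one test.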

Results are given as percent effect.
How 0% and 100% were set is not recorded. Most values in the screen are low, and negative values occur.
The compounds are a random part of those screened.

SMILES: CC(=O)N1CCOC2(CCN(C(=O)C3CC3)CC2)C1
Toxoplasma: -44.51%
T. brucei: -65.7%
LiHisRS: 11.82%
ClpP1P2: -5.925%
TcHisRS: 6.349%

SMILES: CCOC(=O)CCC(=O)N1CCC(Oc2ccc(C(F)(F)F)cn2)CC1
Toxoplasma: -4.656%
T. brucei: 9.302%
LiHisRS: 18.45%
ClpP1P2: -11.01%
TcHisRS: 5.435%

SMILES: CC1CCN(CCCNC(=O)Nc2cc3c(cc2Br)OCCO3)CC1
Toxoplasma: 0.2528%
T. brucei: -4.091%
LiHisRS: 6.849%
ClpP1P2: -2.23%
TcHisRS: 5.911%

SMILES: COC(=O)CNC(=O)C(C(C)C)n1cnc2cc(F)c(F)cc21 (stereo unspecified)
Toxoplasma: -4.618%
T. brucei: 7.65%
LiHisRS: 13.7%
ClpP1P2: -6.197%
TcHisRS: -2.105%

SMILES: Cn1cccc1CCC(=O)N1CCC2(CC1)c1ccccc1CC2O (stereo unspecified)
Toxoplasma: 6.87%
T. brucei: -4.473%
LiHisRS: 23.58%
ClpP1P2: 4.347%
TcHisRS: 5.858%

SMILES: O=c1oc(-c2ccc(F)cc2)nn1CCc1ccncc1
Toxoplasma: -4.871%
T. brucei: -50.26%
LiHisRS: 12.9%
ClpP1P2: -3.181%
TcHisRS: 3.093%

SMILES: Cc1ncc(CN(Cc2ccccn2)Cc2ccccc2Cl)n1C
LiHisRS: 12.68%
ClpP1P2: -25.2%
TcHisRS: 6.923%

SMILES: [H][C@@]12COC[C@]1(COc1cccnc1)CN(C(=O)c1cocn1)C2
Toxoplasma: -28.8%
T. brucei: -45.67%

SMILES: CC(C)CS(=O)(=O)CC(=O)NC(C)(C)c1cccc(F)c1
Toxoplasma: 2.806%
T. brucei: 4.2%
LiHisRS: 13.33%
ClpP1P2: -13.59%
TcHisRS: 9.524%

SMILES: O=C(O)C(F)(F)F.[H][C@@]12C[C@H](C(=O)NC)CN(Cc3ccc(C)o3)[C@]1([H])CCO2
Toxoplasma: -1.663%
T. brucei: -55.13%

SMILES: COc1ccc(C(=O)NCCCNc2ncccn2)c(OC)c1
T. brucei: -23.64%
LiHisRS: 14.52%
ClpP1P2: -7.39%
TcHisRS: 6.897%

SMILES: O=C(CCn1cncn1)NCCOc1cccc(Cl)c1
Toxoplasma: 2.207%
T. brucei: -23.84%
LiHisRS: 3.529%
ClpP1P2: 15.53%
TcHisRS: 7.035%

SMILES: O=C(O)C(F)(F)F.[H][C@@]12CCN(Cc3ccccc3)C[C@]1([H])[C@H](C(=O)N(C)C)CCO2
Toxoplasma: -9.612%
T. brucei: -41.72%

SMILES: COc1ncccc1CN1CCn2c(C(=O)N3CCCC3)cnc2C1
LiHisRS: 18%
ClpP1P2: -10.56%
TcHisRS: 4.598%

SMILES: [H][C@@]12CCN(C(=O)c3cc(C)on3)C[C@]1(c1nc(C)no1)CCO2
Toxoplasma: 1.847%
T. brucei: 6.731%

SMILES: Cc1nn(C)cc1C(=O)NCc1cc(N(C)C)nc2ccccc12
Toxoplasma: 1.277%
T. brucei: -8.419%
LiHisRS: 9.735%
ClpP1P2: -49.58%
TcHisRS: 3.982%

SMILES: N#Cc1cccc(N2CCOCC3(CCCN(C(=O)NC4CC4)C3)C2)c1 (stereo unspecified)
Toxoplasma: -15.37%
LiHisRS: 29.91%
ClpP1P2: 3.613%
TcHisRS: 9.091%

For reference, 2 entries once more:

Result for O=C(O)C(F)(F)F.[H][C@@]12CCN(Cc3ccccc3)C[C@]1([H])[C@H](C(=O)N(C)C)CCO2 was Toxoplasma: -9.612%; T. brucei: -41.72%.
Result for CC(=O)N1CCOC2(CCN(C(=O)C3CC3)CC2)C1 was Toxoplasma: -44.51%; T. brucei: -65.7%; LiHisRS: 11.82%; ClpP1P2: -5.925%; TcHisRS: 6.349%.